Publication PMC8347464, “Design, Synthesis, and In Vitro Antiproliferative Activity of Hydantoin and Purine Derivatives with the 4-Acetylphenylpiperazinylalkyl Moiety” (Materials, 2021)

What was measured:
Assay type in all cases: cell-based
[1] = test system: PC3 cells (human metastatic prostate cancer); assay: MTT assay, PC3 cells
Source text: (§1) Primary and metastatic colon cancer (SW480, SW620), metastatic prostate cancer (PC3), and human immortal keratinocyte (HaCaT) cell lines and immortal microvascular endothelial cells (HMEC-1) were obtained from the American Type Culture Collection (ATCC, Rockville, USA) and cultured in recommended medium, namely, MEM (Biowest SAS, France) for the SW480 and SW620 cells, RPMI 1640 (Biowest SAS, Nuaillé, France) for PC3, DMEM (Biowest SAS, France) for HaCaT and MCDB 131 (PAN BioTech, Aidenbach, Germany) for HMEC-1. The SW480 and SW620 cell lines were initiated by A. Leibovitz et al. and derived from a human primary colon adenocarcinoma and lymph node metastasis of the same patient. respectively. PC3 cell cells were initiated from a bone metastasis of a human prostatic adenocarcinoma. HaCaT cells were obtained from adult human skin, while HMEC-1 cells were established from the dermis of a human neonate. Cells were cultured in recommended medium supplemented with 10% FBS (Biowest SAS, Nuaillé, France), penicillin (100 U/mL), streptomycin […] (Gibco Life Technologies, Waltham MA, USA) and incubated at 37 °C under 5% CO2. The culture medium of HMEC-1 cells was additionally supplemented with glutamine (1 mM) and microvascular growth supplement (5%) (MVGS; Gibco, USA). The cells were cultured until 80% confluency was reached, harvested by treatment with 0.25% trypsin 0.02% EDTA (Gibco Life Technologies, Waltham, MA, USA) and subsequently used for further experiments.
(§2) Cell viability was estimated using a conversion of 3-(4,5-dimethylthiazol-2-yl)-2,5-diphenyltetrazolium bromide salt (MTT) to insoluble formazan crystals by mitochondrial dehydrogenases, present in living cells. Cells were cultured in 96-well plates (l × 10^4 cells per well) and incubated for 24 h at 37 °C under 5% CO2. Next, the cells were treated with various concentrations of the tested compounds (ranging from 10 to 180 μM) and incubated for 72 h at 37 °C under 5% CO2. Untreated cells were used as the control. Next, the medium was removed, MTT solution (0.5 mg/mL) was added to each well, and the cells were incubated for 4 h at 37 °C under 5% CO2. After that, the obtained formazan crystals were dissolved in DMSO and isopropanol (1:1, v/v). The optical density of the dissolved crystals was measured at a wavelength of 570 nm using a UVM 340 reader (ASYS Hitech GmbH, Austria). Cell viability was presented as a percent of MTT reduced in treated cells versus control cells. The relative MTT level (%) was calculated as [A]/[B] × 100, where [A] is the absorbance of the test sample, and [B] is the absorbance of the control sample. The IC50 value was estimated using CompuSyn version 1.0.

[2] = test system: SW480 cells (human primary colon cancer); assay: MTT assay, SW480 cells
Source text: as §1, §2

[3] = test system: SW620 cells (human metastatic colon cancer); assay: MTT assay, SW620 cells
Source text: as §1, §2

SMILES	SI PC3 (IC50 normal cell line/IC50 cancer cell line) ([1]; normal cell line HaCaT)	SI SW480 (IC50 normal cell line/IC50 cancer cell line) ([2]; normal cell line HaCaT)	SI SW620 (IC50 normal cell line/IC50 cancer cell line) ([3]; normal cell line HaCaT)	SI SW480 (IC50 normal cell line/IC50 cancer cell line) ([2]; normal cell line HMEC-1)	SI PC3 (IC50 normal cell line/IC50 cancer cell line) ([1]; normal cell line HMEC-1)	SI SW620 (IC50 normal cell line/IC50 cancer cell line) ([3]; normal cell line HMEC-1)
CC(=O)c1ccc(N2CCN(CCCCCn3c(=O)ccn4c5c(=O)n(C)c(=O)n(C)c5nc34)CC2)cc1 [Compound 13, 9-(5-(4-(4-Acetylphenyl)piperazin-1-yl)pentyl)-1,3-dimethylpyrimido[2,1-f]purine-2,4,8(1H,3H,9H)-trione]	1.33					
CC(=O)c1ccc(N2CCN(CCCCn3c(=O)c(Br)cn4c5c(=O)n(C)c(=O)n(C)c5nc34)CC2)cc1 [Compound 14, 9-(4-(4-(4-Acetylphenyl)piperazin-1-yl)butyl)-7-bromo-1,3-dimethylpyrimido[2,1-f]purine-2,4,8(1H,3H,9H)-trione]	1.06					
CC(=O)c1ccc(N2CCN(CCCCCN3C(=O)NC4(CCc5ccccc54)C3=O)CC2)cc1 (racemic) [Compound 2, (R,S)-1-(5-(4-(4-Acetylphenyl)piperazin-1-yl)pentyl)-2′,3′-dihydrospiro[imidazolidine-4,1′-indene]-2,5-dione]	0.62	0.55	0.52			
CC(=O)c1ccc(N2CCN(CCCCCN3C(=O)NC4(Cc5ccccc5C4)C3=O)CC2)cc1 [Compound 6, (R,S)-1-{5-[4-(4-Acetylophenyl)piperazyn-1-yl]pentyl}-1′,3′-dihydro-2H,5H-spiro[imidazolidine-4,2′-indene]-2,5-dione]	1.67	2.95	2.02			
CC(=O)c1ccc(N2CCN(CCCCN3C(=O)NC4(CCCc5ccccc54)C3=O)CC2)cc1 (racemic) [Compound 3, (R,S)-1-(4-(4-(4-Acetylphenyl)piperazin-1-yl)butyl)-3′,4′-dihydro-2′H-spiro[imidazolidine-4,1′-naphthalene]-2,5-dione]	1.76	0.88	1.09			
CC(=O)c1ccc(N2CCN(CCCCCn3ccn4c5c(=O)n(C)c(=O)n(C)c5nc34)CC2)cc1 [Compound 11, 8-(5-(4-(4-Acetylphenyl)piperazin-1-yl)pentyl)-1,3-dimethyl-1H-imidazo[2,1-f]purine-2,4(3H,8H)-dione]	0.97		0.60			
CC(=O)c1ccc(N2CCN(CCCCN3C(=O)NC4(CCc5ccccc54)C3=O)CC2)cc1 (racemic) [Compound 1, (R,S)-1-(4-(4-(4-Acetylphenyl)piperazin-1-yl)butyl)-2′,3′-dihydrospiro[imidazolidine-4,1′-indene]-2,5-dione]	0.72	0.77	0.62			
CC(=O)c1ccc(N2CCN(CCCCn3c(C)cn4c5c(=O)n(C)c(=O)n(C)c5nc34)CC2)cc1 [Compound 10, 8-(4-(4-(4-Acetylphenyl)piperazin-1-yl)butyl)-1,3,7-trimethyl-1H-imidazo[2,1-f]purine-2,4(3H,8H)-dione]	1.11		0.73			
CC(=O)c1ccc(N2CCN(CCCCn3c(=O)ccn4c5c(=O)n(C)c(=O)n(C)c5nc34)CC2)cc1 [Compound 12, 9-(4-(4-(4-Acetylphenyl)piperazin-1-yl)butyl)-1,3-dimethylpyrimido[2,1-f]purine-2,4,8(1H,3H,9H)-trione]	1.17		0.49			
CC(=O)c1ccc(N2CCN(CCCCCN3C(=O)NC4(CCCc5ccccc54)C3=O)CC2)cc1 (racemic) [Compound 4, (R,S)-1-(5-(4-(4-Acetylphenyl)piperazin-1-yl)pentyl)-3′,4′-dihydro-2′H-spiro[imidazolidine-4,1′-naphthalene]-2,5-dione]	1.79	2.19	2.85	8.88	7.25	11.57
CC(=O)c1ccc(N2CCN(CCCCn3ccn4c5c(=O)n(C)c(=O)n(C)c5nc34)CC2)cc1 [Compound 9, 8-(4-(4-(4-Acetylphenyl)piperazin-1-yl)butyl)-1,3-dimethyl-1H-imidazo[2,1-f]purine-2,4(3H,8H)-dione]	0.72	0.47	0.50			
